Record: PubChem BioAssay AID504784 (Drosophila RNAi Screening Center, 2011)
Purpose: 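Search for regulators of lipid droplet storage in oleate-fed fly cells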 (primary screen). Cell system: Drosophila Kc167 embryonic cells. Knock-down reagent: long dsRNA against Drosophila genes, about 250 ng dsRNA per well. Timing: 4 days. Challenge: cells fed 400 µM oleic acid bound to BSA. Read-out: 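Cells imaged and segmented; ratio of lipid droplet area to nuclear area, log-transformed, then normalised as a B-score over the screen; higher means more stored lipid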. Scale: droplet/nuclear area B-score: higher = more stored lipid (overstorage).
The deposit covers about 17,000 reagents; below is a random part of those with a known target gene and a result. 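Each column is one replicate's B-score; the combined score over replicates was not deposited, so single values may mislead.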 The numbers tell different reagents against one gene apart.

| Target gene | reagent | droplet/nuclear area B-score, replicate 1 | droplet/nuclear area B-score, replicate 2 | droplet/nuclear area B-score, replicate 3 |
| --- | --- | --- | --- | --- |
| CG10984 | 1 | 1.34 | -0.092 | – |
| CG32718 | 1 | 1.12 | 0.31 | – |
| su(sable) (suppressor of sable) | 1 | -2.18 | -0.135 | – |
| CG8679 | 1 | -0.924 | 0.793 | – |
| fz4 (frizzled 4) | 1 | -0.277 | -1.82 | – |
| Lsp1alpha (Larval serum protein 1 alpha) | 1 | -1.57 | 0.526 | -1.09 |
| spn-A (spindle A) | 1 | 0.0172 | -0.67 | – |
| Ostgamma (Oligosaccharide transferase gamma subunit) | 1 | -0.454 | -0.0851 | – |
| CG4806 | 1 | 0.0227 | 0.239 | – |
| ppk11 (pickpocket 11) | 1 | 0.563 | -1.14 | – |
| Rab3 | 1 | -0.0703 | -0.729 | – |
| CG34051 | 1 | -0.252 | -1.97 | – |
| CG13135 | 1 | 1.88 | 0.575 | – |
| CG7900 | 1 | 0.657 | -0.338 | -0.00294 |
| CG7900 | 2 | 1.84 | 0.364 | – |
| CG4069 | 1 | -0.393 | 0.0527 | – |
| ymp (yellow-emperor) | 1 | -0.186 | -0.176 | – |
| ymp (yellow-emperor) | 2 | 0.116 | 0.309 | – |
| CG8117 | 1 | -2.82 | 3.2 | – |
| CG15019 | 1 | 1.42 | -0.724 | – |
| Dus2 (Dihydrouridine synthase 2) | 1 | 0.0201 | -1.33 | -0.7 |
| Acp62F (Accessory gland protein 62F) | 1 | -1.35 | 3.8 | – |
| Ugt37C1 (UDP-glycosyltransferase family 37 member C1) | 1 | -0.769 | -0.0401 | – |
| RpL21 (Ribosomal protein L21) | 1 | 2.59 | 9.92 | – |
| vnd (ventral nervous system defective) | 1 | -0.102 | -0.933 | -0.695 |
| vnd (ventral nervous system defective) | 2 | 0.634 | 0.824 | – |
| CG14820 | 1 | -0.412 | 0.936 | – |
| mRpS25 (mitochondrial ribosomal protein S25) | 1 | 1.94 | 0.674 | – |
| ND-PDSW (NADH dehydrogenase (ubiquinone) PDSW subunit) | 1 | 2.1 | 0.117 | – |
| CG9106 | 1 | 0.461 | 0.629 | -0.478 |
| CG43347 | 1 | 1.87 | 0.81 | 1.72 |
| CG43347 | 2 | -0.432 | 1.14 | -0.5 |
| CG43347 | 3 | 0.0637 | 1.36 | – |
| CG43347 | 4 | -1.11 | -1.4 | – |
| CG43347 | 5 | 0.24 | 0.357 | – |
| CG43347 | 6 | -0.0558 | -0.369 | – |
| GPHR (Golgi pH Regulator) | 1 | -0.251 | 0.313 | – |
| Sur (Sulfonylurea receptor) | 1 | -0.461 | -0.428 | – |
| Snrk (SNF related kinase) | 1 | -2 | 0.254 | – |
| Snrk (SNF related kinase) | 2 | 0.596 | 0.901 | – |
| wcd (wicked) | 1 | -0.889 | -0.0565 | – |
| Inx2 (Innexin 2) | 1 | -1.04 | 0.952 | 0.206 |
| sens-2 (senseless-2) | 1 | -0.0465 | 0.09 | – |
| sens-2 (senseless-2) | 2 | 0.424 | 0.349 | – |
| sens-2 (senseless-2) | 3 | -3.58 | -3.19 | – |
| MED4 (Mediator complex subunit 4) | 1 | 0.457 | 0.295 | – |
| MED31 (Mediator complex subunit 31) | 1 | 1.91 | 1.73 | 0.313 |
| CG14238 | 1 | -1.3 | -0.295 | – |
| CG14418 | 1 | 1.5 | 0.437 | – |
| CG14418 | 2 | 1.28 | 0.625 | – |
| CG8237 | 1 | 2.27 | 0.152 | – |
| Act57B (Actin 57B) | 1 | -1.46 | 0.0469 | – |
| Nprl3 (Nitrogen permease regulator-like 3) | 1 | 0.761 | 0.0978 | -0.662 |
| Sgs7 (Salivary gland secretion 7) | 1 | 0.371 | 0.819 | – |
| CG15473 | 1 | 1.28 | 2.12 | – |
| wb (wing blister) | 1 | -6.64 | -4.22 | – |
| wb (wing blister) | 2 | -0.368 | -0.561 | – |
| wb (wing blister) | 3 | -1.61 | -1.09 | – |
| CG15543 | 1 | 0.38 | -1.85 | – |
| CG15553 | 1 | 0.0479 | -1.53 | – |
| RnrL (Ribonucleoside diphosphate reductase large subunit) | 1 | -1.52 | -0.429 | – |
| vig2 | 1 | -0.202 | 0.0151 | – |
| CG30373 | 1 | 1.08 | -0.756 | – |
| CG7920 | 1 | -0.018 | 0.688 | – |
| CG7920 | 2 | 0.0429 | -0.924 | – |
| CG18304 | 1 | -1.13 | 0.152 | – |
| Nxt1 (NTF2-related export protein 1) | 1 | -0.763 | -1.16 | – |
| CG33298 | 1 | -0.242 | -0.000552 | – |
| CG33298 | 2 | 1.69 | 0.498 | – |
| CG8773 | 1 | 0.036 | -0.103 | – |
| Sod1 (Superoxide dismutase 1) | 1 | -3.09 | -3.01 | – |
| bon (bonus) | 1 | 1.98 | 0.00201 | – |
| CG5762 | 1 | -0.319 | 0.406 | – |
| woc (without children) | 1 | -1.24 | – | – |
| Phb1 (Prohibitin 1) | 1 | 1.26 | 3.49 | – |
| ninaB (neither inactivation nor afterpotential B) | 1 | 0.0211 | -0.698 | – |
| RhoL (Rho-like) | 1 | -0.092 | -0.283 | – |
| prtp (pretaporter) | 1 | -1.17 | 0.15 | -0.868 |
| prtp (pretaporter) | 2 | 0.289 | 0.105 | – |
| HUWE1 | 1 | 1.72 | 2.26 | – |
| Nsun5 (Nop2/Sun-like domain containing protein 5) | 1 | 1.32 | 0.024 | – |
| Mhc (Myosin heavy chain) | 1 | 5.12 | 4.82 | – |
| Taldo (Transaldolase) | 1 | 0.627 | -0.301 | – |
